Experimental data: article PMC4812327
No constants are given. Whether binding was seen depends on the method and setting. In cells and extracts the contact can be indirect.

Biological target: β-tubulin (Drosophila)
Assay: co-IP; co-immunoprecipitation assays of Fig. S10; source of proteins and antibodies not told in the text shown

B1: Partner of Inscuteable (Pins) (protein, UniProt Q9VB22 1-658)
chain: MSSLSASAENVSSLGLGSGGGGTTSHDGNSQQGSGSDGGSSMCLELALEGERLCKAGDCRAGVAFFQAAIQAGTEDLRTLSAIYSQLGNAYFYLGDYNKAMQYHKHDLTLAKSMNDRLGEAKSSGNLGNTLKVMGRFDEAAICCERHLTLARQLGDRLSEGRALYNLGNVYHAKGKHLGQRNPGKFGDDVKEALTRAVEFYQENLKLMRDLGDRGAQGRACGNLGNTYYLLGDFQAAIEHHQERLRIAREFGDRAAERRANSNLGNSHIFLGQFEDAAEHYKRTLALAVELGEREVEAQSCYSLGNTYTLLHEFNTAIEYHNRHLAIAQELGDRIGEARACWSLGNAHSAIGGHERALKYAEQHLQLAKELHDPVGESTARVNISDLRKLLGMPDSEPSPTEEEARSTASDHSASGNQSDGSENSQGRMVRVRRQSMEQLDLIKITPDGKRMQEEKLRAQATRKAKDDDFFEMLSRSQSKRMDDQRCSIKVNPAGAPAVATGATRKPLVQQNSLFVDPTNLPGLKSPSSANPSAIGHGPLARSATTTQQPDDDFLDMLMRCQGSRLEEQRSELPRPNVTMDAEAEAPPRSVPEAAVPGAPRGQTGRGATVPDEDFFSLIMKVQSGRMEDQRASIPFRNANNNNNSRSNNNGSAGGAGK
binding: no binding
